Test results: the supplement of paper PMC10849652
This is one part of the list.

The chains behind the UniProt entries cited, without tags or fusion partners. Where a name states a change or a piece, a line headed by the entry shows the natural chain unless it says otherwise.
UniProt Q9NW64: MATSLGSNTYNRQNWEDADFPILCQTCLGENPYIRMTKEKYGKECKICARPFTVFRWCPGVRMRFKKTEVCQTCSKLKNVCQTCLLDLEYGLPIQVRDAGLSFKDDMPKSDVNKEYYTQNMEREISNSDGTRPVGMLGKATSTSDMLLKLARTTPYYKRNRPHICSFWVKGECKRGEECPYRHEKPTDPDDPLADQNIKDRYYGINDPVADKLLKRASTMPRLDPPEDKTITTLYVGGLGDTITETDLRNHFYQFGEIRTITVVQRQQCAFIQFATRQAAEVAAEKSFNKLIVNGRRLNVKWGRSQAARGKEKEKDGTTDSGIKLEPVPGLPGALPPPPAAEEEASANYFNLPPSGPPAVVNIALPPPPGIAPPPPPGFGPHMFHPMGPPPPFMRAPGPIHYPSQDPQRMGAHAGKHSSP
UniProt Q9UKM9: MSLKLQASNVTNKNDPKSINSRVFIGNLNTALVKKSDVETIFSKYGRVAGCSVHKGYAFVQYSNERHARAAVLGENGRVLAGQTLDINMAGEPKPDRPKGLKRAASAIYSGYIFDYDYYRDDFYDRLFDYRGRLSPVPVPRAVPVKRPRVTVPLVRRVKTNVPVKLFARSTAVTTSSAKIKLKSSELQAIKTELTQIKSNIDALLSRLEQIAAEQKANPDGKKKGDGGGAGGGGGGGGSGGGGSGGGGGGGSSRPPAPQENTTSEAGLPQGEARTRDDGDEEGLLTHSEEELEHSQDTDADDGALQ
UniProt Q15276: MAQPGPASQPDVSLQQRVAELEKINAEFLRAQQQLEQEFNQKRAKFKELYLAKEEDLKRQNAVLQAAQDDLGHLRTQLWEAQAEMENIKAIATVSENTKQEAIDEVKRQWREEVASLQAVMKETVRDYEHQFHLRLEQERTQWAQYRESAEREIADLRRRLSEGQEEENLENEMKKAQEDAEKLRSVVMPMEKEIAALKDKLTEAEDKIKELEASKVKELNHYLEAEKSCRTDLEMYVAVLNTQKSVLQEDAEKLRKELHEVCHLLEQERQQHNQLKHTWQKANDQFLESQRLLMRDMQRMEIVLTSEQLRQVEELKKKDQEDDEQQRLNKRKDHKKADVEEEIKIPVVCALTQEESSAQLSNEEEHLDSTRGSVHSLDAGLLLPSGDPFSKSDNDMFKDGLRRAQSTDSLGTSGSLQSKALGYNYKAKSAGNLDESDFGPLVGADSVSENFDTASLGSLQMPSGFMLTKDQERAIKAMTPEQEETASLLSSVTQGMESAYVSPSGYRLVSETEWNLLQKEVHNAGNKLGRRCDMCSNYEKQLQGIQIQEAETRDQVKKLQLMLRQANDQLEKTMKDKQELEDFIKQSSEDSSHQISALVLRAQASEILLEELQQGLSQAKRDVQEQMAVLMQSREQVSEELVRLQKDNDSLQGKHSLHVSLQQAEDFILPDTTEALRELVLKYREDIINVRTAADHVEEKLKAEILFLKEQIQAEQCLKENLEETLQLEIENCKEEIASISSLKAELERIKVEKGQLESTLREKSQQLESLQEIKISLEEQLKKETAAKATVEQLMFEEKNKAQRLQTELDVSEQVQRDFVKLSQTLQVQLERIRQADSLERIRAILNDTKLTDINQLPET
UniProt Q9UL26: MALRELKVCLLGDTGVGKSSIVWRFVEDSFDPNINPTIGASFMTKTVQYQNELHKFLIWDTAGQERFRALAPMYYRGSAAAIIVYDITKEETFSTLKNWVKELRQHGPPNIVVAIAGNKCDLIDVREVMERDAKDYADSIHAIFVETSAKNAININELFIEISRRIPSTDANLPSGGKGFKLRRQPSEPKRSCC
UniProt Q96B01: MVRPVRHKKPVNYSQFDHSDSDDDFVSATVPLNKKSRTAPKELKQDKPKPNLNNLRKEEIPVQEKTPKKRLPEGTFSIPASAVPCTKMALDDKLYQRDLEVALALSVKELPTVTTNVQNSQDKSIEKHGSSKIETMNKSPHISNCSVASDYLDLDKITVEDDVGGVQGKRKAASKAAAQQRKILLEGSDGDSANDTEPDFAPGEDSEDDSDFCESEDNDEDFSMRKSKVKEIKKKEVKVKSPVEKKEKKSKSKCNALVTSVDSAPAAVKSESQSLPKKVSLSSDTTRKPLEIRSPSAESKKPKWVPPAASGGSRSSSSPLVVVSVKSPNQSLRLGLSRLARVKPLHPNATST
UniProt O75884: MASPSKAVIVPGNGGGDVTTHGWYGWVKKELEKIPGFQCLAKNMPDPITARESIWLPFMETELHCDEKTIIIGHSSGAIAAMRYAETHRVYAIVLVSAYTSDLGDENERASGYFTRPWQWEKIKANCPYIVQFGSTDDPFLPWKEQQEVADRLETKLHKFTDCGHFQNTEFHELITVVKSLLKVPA
UniProt Q09028, whole entry, looked up: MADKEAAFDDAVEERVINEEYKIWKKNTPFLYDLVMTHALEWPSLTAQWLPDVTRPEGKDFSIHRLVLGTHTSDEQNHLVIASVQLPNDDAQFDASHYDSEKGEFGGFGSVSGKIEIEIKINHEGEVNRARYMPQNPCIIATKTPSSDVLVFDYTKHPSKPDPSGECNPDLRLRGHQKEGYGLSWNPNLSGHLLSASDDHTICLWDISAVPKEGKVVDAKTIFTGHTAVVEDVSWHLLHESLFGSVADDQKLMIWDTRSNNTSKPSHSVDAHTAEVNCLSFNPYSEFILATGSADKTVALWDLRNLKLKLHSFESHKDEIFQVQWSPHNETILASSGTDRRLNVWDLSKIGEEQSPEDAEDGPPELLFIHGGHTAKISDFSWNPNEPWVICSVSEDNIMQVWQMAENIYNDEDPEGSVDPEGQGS
UniProt Q99708: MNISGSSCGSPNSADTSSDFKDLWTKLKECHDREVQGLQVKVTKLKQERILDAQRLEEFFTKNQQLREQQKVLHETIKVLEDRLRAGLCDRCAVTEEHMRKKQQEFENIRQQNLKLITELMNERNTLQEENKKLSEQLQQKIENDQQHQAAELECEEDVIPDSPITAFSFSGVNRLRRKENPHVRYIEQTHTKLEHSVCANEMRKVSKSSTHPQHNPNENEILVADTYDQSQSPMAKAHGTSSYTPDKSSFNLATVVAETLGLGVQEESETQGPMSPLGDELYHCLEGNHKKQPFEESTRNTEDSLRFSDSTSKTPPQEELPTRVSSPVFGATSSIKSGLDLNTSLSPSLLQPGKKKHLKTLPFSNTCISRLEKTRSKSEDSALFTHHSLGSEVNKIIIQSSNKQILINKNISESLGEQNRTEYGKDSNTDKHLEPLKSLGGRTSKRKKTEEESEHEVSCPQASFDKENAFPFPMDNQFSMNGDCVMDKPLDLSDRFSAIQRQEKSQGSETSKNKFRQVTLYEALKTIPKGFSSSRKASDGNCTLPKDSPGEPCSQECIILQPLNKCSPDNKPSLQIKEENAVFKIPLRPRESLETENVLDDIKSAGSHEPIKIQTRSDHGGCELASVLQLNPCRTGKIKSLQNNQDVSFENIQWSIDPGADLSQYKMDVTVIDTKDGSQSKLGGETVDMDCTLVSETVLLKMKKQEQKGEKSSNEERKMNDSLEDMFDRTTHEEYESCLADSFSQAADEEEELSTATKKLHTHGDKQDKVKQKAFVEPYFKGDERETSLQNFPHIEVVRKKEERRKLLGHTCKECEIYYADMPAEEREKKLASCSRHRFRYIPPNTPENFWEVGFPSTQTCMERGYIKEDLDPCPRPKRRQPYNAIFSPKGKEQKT
UniProt O75943: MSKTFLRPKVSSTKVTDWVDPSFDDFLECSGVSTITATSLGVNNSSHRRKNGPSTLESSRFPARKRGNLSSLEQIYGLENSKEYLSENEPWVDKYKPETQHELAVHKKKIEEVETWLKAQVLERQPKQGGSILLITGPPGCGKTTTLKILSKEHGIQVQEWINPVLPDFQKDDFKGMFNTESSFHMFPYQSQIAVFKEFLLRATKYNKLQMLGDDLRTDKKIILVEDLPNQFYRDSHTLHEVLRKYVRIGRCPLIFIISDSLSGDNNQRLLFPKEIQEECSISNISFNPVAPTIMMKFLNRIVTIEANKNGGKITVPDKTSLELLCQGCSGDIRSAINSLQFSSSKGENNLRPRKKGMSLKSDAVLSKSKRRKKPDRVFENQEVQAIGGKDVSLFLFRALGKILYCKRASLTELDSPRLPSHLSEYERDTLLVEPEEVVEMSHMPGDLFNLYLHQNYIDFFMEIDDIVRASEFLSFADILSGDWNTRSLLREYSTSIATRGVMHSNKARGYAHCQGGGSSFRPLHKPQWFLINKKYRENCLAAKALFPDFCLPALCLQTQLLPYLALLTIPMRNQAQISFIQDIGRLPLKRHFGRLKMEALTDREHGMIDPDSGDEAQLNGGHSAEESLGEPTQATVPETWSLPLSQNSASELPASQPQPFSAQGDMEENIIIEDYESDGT
UniProt Q15291, whole entry, looked up: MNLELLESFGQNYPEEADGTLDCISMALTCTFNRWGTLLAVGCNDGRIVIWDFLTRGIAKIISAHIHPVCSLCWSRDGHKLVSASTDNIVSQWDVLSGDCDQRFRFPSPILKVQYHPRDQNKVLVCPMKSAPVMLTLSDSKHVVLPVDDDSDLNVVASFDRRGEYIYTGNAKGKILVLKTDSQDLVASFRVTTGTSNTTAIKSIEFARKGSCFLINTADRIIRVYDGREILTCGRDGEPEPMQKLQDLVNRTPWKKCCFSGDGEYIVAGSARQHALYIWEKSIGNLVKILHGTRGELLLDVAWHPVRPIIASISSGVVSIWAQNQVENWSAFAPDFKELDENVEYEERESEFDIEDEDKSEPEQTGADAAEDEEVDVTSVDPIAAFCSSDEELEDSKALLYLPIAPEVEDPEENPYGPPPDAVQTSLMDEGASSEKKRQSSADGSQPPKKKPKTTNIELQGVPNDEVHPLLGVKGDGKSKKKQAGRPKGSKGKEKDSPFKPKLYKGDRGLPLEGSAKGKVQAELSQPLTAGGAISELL
UniProt Q96S21: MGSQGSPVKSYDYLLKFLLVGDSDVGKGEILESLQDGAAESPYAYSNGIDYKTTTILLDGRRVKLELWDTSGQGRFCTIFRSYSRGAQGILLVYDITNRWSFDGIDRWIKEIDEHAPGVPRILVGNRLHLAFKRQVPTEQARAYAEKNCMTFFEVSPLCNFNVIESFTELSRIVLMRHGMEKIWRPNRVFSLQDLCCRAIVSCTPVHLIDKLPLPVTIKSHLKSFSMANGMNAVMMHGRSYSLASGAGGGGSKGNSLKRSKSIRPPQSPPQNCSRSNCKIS
UniProt Q9H477: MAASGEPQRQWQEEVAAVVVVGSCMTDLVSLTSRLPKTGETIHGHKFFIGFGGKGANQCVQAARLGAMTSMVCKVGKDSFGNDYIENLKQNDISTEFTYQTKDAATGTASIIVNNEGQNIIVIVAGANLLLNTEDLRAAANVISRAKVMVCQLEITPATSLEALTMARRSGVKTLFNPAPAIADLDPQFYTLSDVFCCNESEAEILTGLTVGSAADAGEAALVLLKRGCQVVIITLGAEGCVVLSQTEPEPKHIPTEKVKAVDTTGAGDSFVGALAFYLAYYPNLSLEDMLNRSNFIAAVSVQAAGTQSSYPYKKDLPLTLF
UniProt Q9H5N1: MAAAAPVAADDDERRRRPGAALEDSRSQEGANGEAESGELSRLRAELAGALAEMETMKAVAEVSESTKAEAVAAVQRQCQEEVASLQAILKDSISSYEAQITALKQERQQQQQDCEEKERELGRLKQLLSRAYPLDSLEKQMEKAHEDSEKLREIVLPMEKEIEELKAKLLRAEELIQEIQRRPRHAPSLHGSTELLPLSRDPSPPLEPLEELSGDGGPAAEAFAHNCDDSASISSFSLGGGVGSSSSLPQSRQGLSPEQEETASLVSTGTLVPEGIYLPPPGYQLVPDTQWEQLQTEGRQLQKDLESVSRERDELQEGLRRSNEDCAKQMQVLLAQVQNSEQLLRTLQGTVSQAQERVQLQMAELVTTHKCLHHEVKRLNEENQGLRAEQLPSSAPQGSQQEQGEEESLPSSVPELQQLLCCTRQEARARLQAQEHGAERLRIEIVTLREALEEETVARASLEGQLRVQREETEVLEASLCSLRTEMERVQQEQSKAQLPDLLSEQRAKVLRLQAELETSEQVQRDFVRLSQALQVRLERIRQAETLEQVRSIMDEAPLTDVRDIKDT
UniProt Q9H6Z4: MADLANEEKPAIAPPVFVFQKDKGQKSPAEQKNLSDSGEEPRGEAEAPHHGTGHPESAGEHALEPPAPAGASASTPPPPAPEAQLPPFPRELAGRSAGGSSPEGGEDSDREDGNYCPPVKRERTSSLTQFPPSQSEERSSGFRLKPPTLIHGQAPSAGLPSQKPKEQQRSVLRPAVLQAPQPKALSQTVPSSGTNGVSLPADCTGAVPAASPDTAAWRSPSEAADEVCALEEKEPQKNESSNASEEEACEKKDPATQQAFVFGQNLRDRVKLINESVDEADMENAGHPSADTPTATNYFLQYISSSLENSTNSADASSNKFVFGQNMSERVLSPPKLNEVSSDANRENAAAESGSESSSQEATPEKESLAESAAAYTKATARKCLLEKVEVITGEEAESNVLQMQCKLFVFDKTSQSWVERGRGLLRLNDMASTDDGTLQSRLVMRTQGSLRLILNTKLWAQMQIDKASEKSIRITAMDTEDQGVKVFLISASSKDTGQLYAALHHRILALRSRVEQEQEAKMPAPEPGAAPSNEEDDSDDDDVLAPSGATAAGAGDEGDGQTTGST

Legend:
Assay in all cases: log2 fold change, soluble protein after heating vs DMSO (PISA); higher = thermal stabilisation; K562 cells, 10 uM, 30 min; active = over 0.2 and 3.5 SD of the protein, either way, in both replicates (recomputed)
[1] = compound: C1=CC=C(C=C1)[C@H](COC2=CC3=C(C=C2)NC(=O)N3)NC(=O)C4=CC=CN(C4=O)CC5=CC(=C(C=C5)F)F
Method in brief: (§1)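 K562 cells at 2×10^6 cells/mL were treated for 30 min with 10 μM compound, and aliquots were heated for 3 min over 48°C-58°C before pooling. Extraction used PBS with 0.5% NP-40 at 4°C, and soluble protein was the supernatant after 21,000xg for 90 min, measured by TMTpro 16plex LC-MS/MS with channel sums equalised. Thermal stability values, relative to control samples and from duplicates, are log2 fold changes.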

[2] = compound: CC1=C(SC2=C1C(=N[C@H](C3=NN=C(N32)C)CC(=O)N)C4=CC=C(C=C4)Cl)C
Method in brief: as §1

[3] = compound: CC1=C2C(=CC=C1)N=C(N(C2=O)C3=CC=CC=C3C)CN4C=NC5=C(N=CN=C54)N
Method in brief: as §1

[4] = compound: Cc1sc2c(c1C)C(c1ccc(Cl)cc1)=N[C@@H](CC(=O)OC(C)(C)C)c1nnc(C)n1-2
Method in brief: as §1

[5] = compound: c1ccc([C@@H]2C[C@H]2NC2CCNCC2)cc1
Method in brief: as §1

Measured: log2 fold change

RBM22 (UniProt Q9NW64)
inactive: [1] 0.033 | [2] -0.022 | [3] -0.013 | [4] 0.027 | [5] 0.049

RALY (UniProt Q9UKM9)
inactive: [1] 0.102 | [2] -0.379 | [3] -0.243 | [4] 0.031 | [5] 0.003

RAB3IL1 (UniProt Q8TBN0)
inactive: [1] 0.018 | [2] -0.013 | [3] 0.078 | [4] -0.03 | [5] -0.076

RABEP1 (UniProt Q15276)
inactive: [1] 0.025 | [2] 0.065 | [3] 0.058 | [4] -0.004 | [5] 0.006

RABL6 (UniProt Q3YEC7)
inactive: [1] -0.013 | [2] -0.003 | [3] -0.018 | [4] 0.013 | [5] 0.007

RAB6B (UniProt Q9NRW1)
inactive: [1] 0.036 | [2] -0.017 | [3] 0.03 | [4] -0.032 | [5] -0.01

RANGAP1 (UniProt P46060)
inactive: [1] -0.051 | [2] 0.034 | [3] 0.031 | [4] -0.011 | [5] 0

Fetched one by one from above (three):
RAB3IL1 (UniProt Q8TBN0)
inactive: [1] 0.018 | [2] -0.013 | [3] 0.078 | [4] -0.03 | [5] -0.076

RABL6 (UniProt Q3YEC7)
inactive: [1] -0.013 | [2] -0.003 | [3] -0.018 | [4] 0.013 | [5] 0.007

RABEP1 (UniProt Q15276)
inactive: [1] 0.025 | [2] 0.065 | [3] 0.058 | [4] -0.004 | [5] 0.006

The list continues.

RAPGEF2, A0A2R8YGD3
inactive: [1] 0.384 | [2] -0.034 | [3] 0.158 | [4] -0.048 | [5] 0.036

RAB3IL1 (UniProt E9PK89)
inactive: [1] 0.05 | [2] 0.259 | [3] -0.107 | [4] 0.15 | [5] -0.136

RACK1 (UniProt D6RHH4)
inactive: [1] 0.069 | [2] -0.039 | [3] 0.319 | [4] 0.03 | [5] -0.067

RANBP9 (UniProt Q96S59)
inactive: [1] 0.024 | [2] 0.03 | [3] 0.007 | [4] 0.005 | [5] 0.061

RB1 (UniProt P06400)
inactive: [1] -0.038 | [2] 0.064 | [3] 0.048 | [4] 0.011 | [5] 0

RAPGEF5, A0A590UJR0
inactive: [1] -0.026 | [2] -0.558 | [3] 0.134 | [4] 0.107 | [5] -0.274

RAB9A (UniProt P51151)
inactive: [1] 0.024 | [2] 0.088 | [3] 0.065 | [4] -0.04 | [5] 0.001

RAB22A (UniProt Q9UL26)
inactive: [1] 0.041 | [2] 0.019 | [3] 0.043 | [4] -0.016 | [5] -0.043

RAP2C (UniProt Q9Y3L5)
inactive: [1] 0 | [2] 0.055 | [3] -0.012 | [4] 0.038 | [5] -0.011

RAB3B (UniProt P20337)
inactive: [4] -0.008

RAD51AP1 (UniProt Q96B01)
inactive: [1] 0.026 | [2] 0.02 | [3] -0.055 | [4] 0.054 | [5] 0.078

RBBP9 (UniProt O75884)
inactive: [3] -0.066

RBBP4 isoform 2 (UniProt Q09028)
inactive: [1] -0.011 | [2] 0.043 | [5] 0.157

RBBP8 isoform 2 (UniProt Q99708)
inactive: [4] 0.015

RAD17 (UniProt O75943)
inactive: [4] 0.051

RAP1B (UniProt F5GWU8)
inactive: [2] 0.063 | [3] 0.022 | [5] -0.205

RBCK1 (UniProt Q9BYM8)
inactive: [2] 0.092 | [3] 0.195 | [4] -0.139 | [5] -0.11

RAI14 isoform 2 (UniProt Q9P0K7)
inactive: [1] 0.042 | [2] 0.121 | [3] 0.136 | [4] 0.198 | [5] 0.123

RAB30 (UniProt Q15771)
inactive: [1] 0.086 | [2] -0.061 | [3] -0.051 | [5] 0.041

RBM28 (UniProt Q9NW13)
inactive: [1] -0.03 | [2] -0.33 | [5] -0.122

RASA3 (UniProt Q14644)
inactive: [2] 0.071 | [5] -0.259

RBBP5 isoform 2 (UniProt Q15291)
inactive: [1] 0.041 | [3] -0.098 | [4] -0.055

RAB40C (UniProt Q96S21)
inactive: [1] 0.077 | [3] 0.064 | [4] -0.18

RALGAPB (UniProt Q86X10)
inactive: [1] -0.068 | [2] -0.161 | [4] 0.098 | [5] 0.145

RASSF3 (UniProt Q86WH2)
inactive: [1] -0.036 | [2] 0.171 | [3] 0.033 | [5] 0

RBKS (UniProt Q9H477)
inactive: [3] -0.06

RAB3IP (UniProt Q96QF0)
inactive: [1] 0.079 | [2] 0.047 | [3] 0.212 | [4] -0.01 | [5] -0.128

RASSF1 (UniProt Q9NS23)
inactive: [3] 0.367

R3HDM1 isoform 2 (UniProt Q15032)
inactive: [1] 0.024 | [3] -0.026 | [4] 0.033

RABEP2 (UniProt Q9H5N1)
inactive: [2] 0.06 | [5] -0.134

RANBP3 isoform 2 (UniProt Q9H6Z4)
inactive: [1] -0.023 | [4] 0.071

RBFOX2 isoform 8 (UniProt O43251)
inactive: [1] 0.111 | [2] 0.114 | [3] -0.043 | [4] 0.03 | [5] 0

RALBP1 (UniProt Q15311)
inactive: [2] 0.038 | [3] 0.076 | [4] 0.068 | [5] -0.208
